In this assay the target is INI1_(183-265) (Rpt1+linker domain of INI1/SMARCB1), His6-SUMO tag removed (UniProt Q12824). Nature of the assay: AUC + other: NMR self-diffusion; sedimentation velocity at 25 °C, absorbance at 280 nm, 20 mM HEPES pH 7.5, 300 mM NaCl, 2 mM DTT, 5 % glycerol; both purified.

Sequences of proteins named here, by UniProt entry; tags and fusion partners are left off. Residues count along the entry.
UniProt Q12824, residues 183-265: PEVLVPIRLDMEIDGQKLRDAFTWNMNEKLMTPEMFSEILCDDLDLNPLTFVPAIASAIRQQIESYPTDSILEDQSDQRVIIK

The values that follow come from publication PMC8115288.

These are yes or no findings as the source states them, for the method shown.

As for “INI1_(183-265) (Rpt1+linker domain of INI1/SMARCB1), His6-SUMO tag removed (from UniProt Q12824 183-265) (domain or fragment)”, the binding entry is “no binding”.
